{"source": "patent US11497793B2", "about": "“Compositions and methods for treating glioblastoma” (TEL HASHOMER MEDICAL RESEARCH INFRASTRUCTURE AND SERVICES …, priority 2018, dated 2022)", "key": {"[1]": {"tested_on": "phosphorylated extracellular signal-regulated kinase (pERK)", "assay": "Western blot of pERK level in glioma cells", "assay_type": "cell-based, rat", "details": "CNS-1 cells, 24 h; TMZ 500 μM, SIXAC 10 μM, alone or combined; vs FCS-free medium with 0.2% DMSO", "method": "(§1) More particularly, the expression of two proteins, PAR-1 and phosphorylated extracellular signal-regulated kinase (pERK), was examined in glioma cells incubated with TMZ, SIXAC or a combination of TMZ+SIXAC.\n(§2) CNS-1 rat glioma cells were grown in Dulbecco's modified Eagle's medium (DMEM; Bet Haemek, Biological Industries, Israel) supplemented with 10% fetal bovine serum (Bet Haemek, Biological Industries, Israel) and 1% penicillin and streptomycin in a 5% CO2-humidified atmosphere.\n(§3) CNS-1 cells were seeded and incubated for 24 h. Then the medium was replaced by FCS-free medium for additional 24 h. Next, the cells were treated for 24 h with SIXAC (10 μM), TMZ (500 μM), a combination of TMZ (500 μM) and SIXAC (10 μM) or a FCS-free medium (containing 0.2% DMSO) which was used as a control (n=4 for each treatment group). The cells were then washed with ice-cold PBS and lysed in RIPA buffer (containing in mM: 50 TRIS HCl pH 8, 150 NaCl, 1% NP-40, 0.5% sodium deoxycholate, and 0.1% SDS), a protease inhibitor cocktail (Merck Millipore 539134, 1:100), 0.1 mM sodium orthovanadate and 2 mM PMSF. The cells were scraped, collected and centrifuged (16,000 g×20 min) at 4° C. The supernatants were collected, and protein concentration was determined by means of a bicinchoninic acid (BCA) assay."}, "[2]": {"tested_on": "PAR-1", "assay": "Western blot of PAR-1 level in glioma cells", "assay_type": "cell-based, rat", "details": "CNS-1 cells, 24 h; TMZ 500 μM, SIXAC 10 μM, alone or combined; vs FCS-free medium with 0.2% DMSO", "method": "as §1, §2, §3"}, "[3]": {"tested_on": "C6 rat glioma cells", "assay": "Scratch (wound healing) assay of glioma cell migration", "assay_type": "cell-based", "details": "4 h of incubation, SIXAC 1 μM, TMZ 100 μM, alone or combined", "method": "C6 rat glioma cells were grown in Dulbecco's modified Eagle's medium (DMEM; Bet Haemek, Biological Industries, Israel) supplemented with 10% fetal bovine serum (Bet Haemek, Biological Industries, Israel) and 1% penicillin and streptomycin in a 5% CO2-humidified atmosphere.\nThe effect of TMZ and SIXAC on the coordinated movement of C6 glioma cells was evaluated using a wound healing assay. The cells were seeded in 24-well plates at a density of 5×10^4 cells/well. Cells were cultured in FCS-free medium for 24 h. A wound was established by scraping using 10 μl pipette tip. Cells were washed twice with warm PBS and then fresh FCS-free medium was added, containing SIXAC (1 μM), TMZ (100 μM) or a combination of SIXAC and TMZ. Wells with FCS-free medium only or FCS-free medium+DMSO 0.2% were used as controls (marked as “control” and “control+DMSO”) Image acquisition of wound gap closure (%) was carried out following 4 h of incubation using a Nikon Eclipse microscope Images were analyzed using Fiji software."}}, "note": "At least one compound was matched to its structure with a doubt left."}
{"smiles": "Cn1nnc2c(C(N)=O)ncn2c1=O", "note": "[TMZ, temozolomide]", "values": [{"measurement": "pERK expression", "setting": "[1]", "result": "significant increase"}, {"measurement": "PAR1 expression", "setting": "[2]", "result": "significant increase"}, {"measurement": "wound-closure percentage", "setting": "[3]", "result": "not"}]}
